Measured values from patent US7749984B2, “Computer-based model for identification and characterization of non-competitive inhibitors of nicotinic acetylcholine receptors and related ligand-gated ion channel receptors” (priority 2003, dated 2010).

By UniProt entry, the sequences of proteins in these tests, tags left out. Residues count along the entry.
UniProt P04757, 26-499: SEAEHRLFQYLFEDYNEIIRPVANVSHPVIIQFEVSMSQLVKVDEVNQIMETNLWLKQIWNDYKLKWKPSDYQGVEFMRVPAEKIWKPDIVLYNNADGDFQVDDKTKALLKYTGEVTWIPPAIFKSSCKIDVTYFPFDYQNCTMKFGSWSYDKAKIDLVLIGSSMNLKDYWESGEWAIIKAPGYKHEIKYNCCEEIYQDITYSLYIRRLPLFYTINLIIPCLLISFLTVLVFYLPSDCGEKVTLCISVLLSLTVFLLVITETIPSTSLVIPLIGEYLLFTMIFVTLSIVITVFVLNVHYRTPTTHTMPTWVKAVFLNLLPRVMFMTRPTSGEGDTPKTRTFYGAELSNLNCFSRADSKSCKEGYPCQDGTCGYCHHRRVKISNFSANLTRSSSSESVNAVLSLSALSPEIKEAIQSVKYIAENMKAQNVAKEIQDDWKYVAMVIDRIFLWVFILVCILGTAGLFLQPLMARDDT
UniProt P12392, 21-495: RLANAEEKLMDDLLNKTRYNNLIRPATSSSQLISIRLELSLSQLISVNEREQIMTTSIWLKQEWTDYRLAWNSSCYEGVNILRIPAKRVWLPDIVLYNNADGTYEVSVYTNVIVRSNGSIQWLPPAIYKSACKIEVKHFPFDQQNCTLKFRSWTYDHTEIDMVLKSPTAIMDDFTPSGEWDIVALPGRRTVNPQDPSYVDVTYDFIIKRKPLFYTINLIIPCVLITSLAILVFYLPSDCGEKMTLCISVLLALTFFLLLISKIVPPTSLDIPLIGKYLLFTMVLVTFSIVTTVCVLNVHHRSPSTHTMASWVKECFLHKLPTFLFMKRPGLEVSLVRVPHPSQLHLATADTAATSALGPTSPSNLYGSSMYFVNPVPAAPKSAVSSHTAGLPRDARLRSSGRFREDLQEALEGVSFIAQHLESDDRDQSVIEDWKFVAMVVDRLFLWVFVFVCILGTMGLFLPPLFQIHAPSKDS

Target: α3β4 nAChR (Rattus norvegicus, UniProt P04757+P12392)
Assay: Nicotine-stimulated 86Rb+ efflux assay, KXα3β4R2 cell line
Format: cell-based
Design: host or cells: HEK293 (KXα3β4R2)
Description: After the prediction has been done based on clustering the actual values of IC50 were determined using the nicotine-stimulated ^86Rb^+ efflux assay on cell line KXα3β4R2.

COC(=O)C1=C(C)NC(C)=C(C(=O)OC)C1c1ccccc1[N+](=O)[O-] [nifedipine]
IC50: 24.7 µM
